# No constants are given. Whether binding was seen depends on the method and setting. In cells and extracts the contact can be indirect. Here binding means that the protein was enriched with, or labelled near, the bait; the list need not be complete. Sequences can lack the tags named with a protein.
# By UniProt entry, the sequences of proteins in these tests, tags left out.
# UniProt Q8K202: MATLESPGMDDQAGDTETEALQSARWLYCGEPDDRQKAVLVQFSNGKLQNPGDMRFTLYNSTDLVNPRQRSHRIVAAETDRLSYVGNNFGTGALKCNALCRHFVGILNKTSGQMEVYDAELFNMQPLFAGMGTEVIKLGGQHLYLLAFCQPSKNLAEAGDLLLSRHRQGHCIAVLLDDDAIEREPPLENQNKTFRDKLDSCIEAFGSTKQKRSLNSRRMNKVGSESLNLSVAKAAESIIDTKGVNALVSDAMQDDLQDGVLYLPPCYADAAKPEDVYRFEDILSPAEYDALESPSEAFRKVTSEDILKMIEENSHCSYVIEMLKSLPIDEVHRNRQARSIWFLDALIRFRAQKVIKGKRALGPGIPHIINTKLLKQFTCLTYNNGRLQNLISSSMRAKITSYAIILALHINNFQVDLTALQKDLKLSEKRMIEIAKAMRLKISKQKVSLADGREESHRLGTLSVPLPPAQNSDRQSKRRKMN
# UniProt O35134: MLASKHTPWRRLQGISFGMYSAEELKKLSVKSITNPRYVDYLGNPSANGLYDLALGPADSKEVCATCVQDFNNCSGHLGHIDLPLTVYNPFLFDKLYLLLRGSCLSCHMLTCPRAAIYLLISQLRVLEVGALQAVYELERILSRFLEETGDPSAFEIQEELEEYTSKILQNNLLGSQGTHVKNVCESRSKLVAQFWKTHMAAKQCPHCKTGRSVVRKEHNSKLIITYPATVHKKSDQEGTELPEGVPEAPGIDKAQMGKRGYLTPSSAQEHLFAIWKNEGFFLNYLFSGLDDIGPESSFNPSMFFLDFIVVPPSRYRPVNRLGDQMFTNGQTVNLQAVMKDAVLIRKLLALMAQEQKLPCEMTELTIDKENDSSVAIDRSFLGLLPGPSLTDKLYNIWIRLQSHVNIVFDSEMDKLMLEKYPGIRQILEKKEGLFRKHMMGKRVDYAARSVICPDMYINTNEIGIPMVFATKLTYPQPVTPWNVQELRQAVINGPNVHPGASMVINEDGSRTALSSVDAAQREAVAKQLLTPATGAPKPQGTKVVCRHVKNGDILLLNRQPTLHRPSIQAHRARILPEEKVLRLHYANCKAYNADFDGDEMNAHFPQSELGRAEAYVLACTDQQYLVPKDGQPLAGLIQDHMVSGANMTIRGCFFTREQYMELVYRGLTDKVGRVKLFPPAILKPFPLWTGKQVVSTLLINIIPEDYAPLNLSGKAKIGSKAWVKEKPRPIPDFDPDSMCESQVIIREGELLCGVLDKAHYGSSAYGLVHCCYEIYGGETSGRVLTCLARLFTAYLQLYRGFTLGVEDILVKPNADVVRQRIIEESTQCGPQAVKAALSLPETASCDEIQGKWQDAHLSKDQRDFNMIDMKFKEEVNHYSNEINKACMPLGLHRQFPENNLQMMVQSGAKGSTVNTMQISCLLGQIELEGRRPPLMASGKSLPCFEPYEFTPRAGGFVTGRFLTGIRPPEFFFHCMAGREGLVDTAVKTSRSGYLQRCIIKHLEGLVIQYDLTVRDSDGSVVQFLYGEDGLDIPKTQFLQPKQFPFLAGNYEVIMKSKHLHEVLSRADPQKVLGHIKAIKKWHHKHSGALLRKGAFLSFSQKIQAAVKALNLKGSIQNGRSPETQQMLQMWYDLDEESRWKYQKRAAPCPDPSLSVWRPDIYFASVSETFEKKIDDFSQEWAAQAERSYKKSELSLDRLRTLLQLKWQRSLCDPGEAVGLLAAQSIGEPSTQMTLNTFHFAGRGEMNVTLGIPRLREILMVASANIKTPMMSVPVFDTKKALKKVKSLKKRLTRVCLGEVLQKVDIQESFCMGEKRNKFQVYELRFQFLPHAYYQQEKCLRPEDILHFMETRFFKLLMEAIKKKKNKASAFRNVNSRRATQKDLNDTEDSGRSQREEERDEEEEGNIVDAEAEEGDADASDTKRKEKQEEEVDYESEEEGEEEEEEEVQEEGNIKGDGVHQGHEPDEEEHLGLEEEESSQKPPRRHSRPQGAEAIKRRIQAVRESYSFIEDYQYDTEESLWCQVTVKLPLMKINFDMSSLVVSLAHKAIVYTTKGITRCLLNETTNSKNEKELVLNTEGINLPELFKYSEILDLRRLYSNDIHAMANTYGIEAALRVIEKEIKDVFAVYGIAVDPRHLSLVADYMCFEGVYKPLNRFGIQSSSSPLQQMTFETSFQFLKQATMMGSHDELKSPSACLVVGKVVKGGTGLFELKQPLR
# Target: T1, biotin tagged CTCF (CTCF-bio) (mouse) (UniProt Q61164)
# T1 sequence (chain, biotinylated lysine in the C-terminal tag (by BirA)): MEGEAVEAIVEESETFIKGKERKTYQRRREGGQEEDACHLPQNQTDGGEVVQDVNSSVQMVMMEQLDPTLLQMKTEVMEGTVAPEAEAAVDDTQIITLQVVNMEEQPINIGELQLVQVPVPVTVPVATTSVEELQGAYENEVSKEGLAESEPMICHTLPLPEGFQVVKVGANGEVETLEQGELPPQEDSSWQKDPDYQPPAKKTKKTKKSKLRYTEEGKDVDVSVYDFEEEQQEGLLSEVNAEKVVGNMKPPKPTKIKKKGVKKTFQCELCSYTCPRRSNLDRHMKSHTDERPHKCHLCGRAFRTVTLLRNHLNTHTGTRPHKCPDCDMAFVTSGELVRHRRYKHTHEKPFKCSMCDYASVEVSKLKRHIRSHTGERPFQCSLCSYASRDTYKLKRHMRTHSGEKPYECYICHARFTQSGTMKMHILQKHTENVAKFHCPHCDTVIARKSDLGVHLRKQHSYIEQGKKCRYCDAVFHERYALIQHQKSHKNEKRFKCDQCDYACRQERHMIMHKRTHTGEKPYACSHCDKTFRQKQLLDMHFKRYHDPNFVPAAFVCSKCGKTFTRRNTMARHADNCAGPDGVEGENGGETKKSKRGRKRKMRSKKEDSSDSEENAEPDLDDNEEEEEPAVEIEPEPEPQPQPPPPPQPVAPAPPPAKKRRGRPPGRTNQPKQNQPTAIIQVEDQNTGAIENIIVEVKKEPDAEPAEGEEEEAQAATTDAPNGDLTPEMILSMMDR
# Assay: affinity purification with mass spectrometry; CTCF-bio purified from ES cell nuclear extracts under mild conditions with streptavidin-coupled magnetic beads; Mascot score cut-off 60
row,binding,Substance
1,binds,PAF53 (from UniProt Q8K202 1-482)
2,binds,large subunit of RNA polymerase I (RPA194) (from UniProt O35134 1-1717)

# — PMC2993708
